Source: PubChem BioAssay AID2685 (National Center for Advancing Translational Sciences (NCATS), 2010)
This is one part of the list. Further columns of the screen follow, without active or inactive calls. The list favours compounds with an active or inconclusive main result. The note in brackets gives the kind of curve behind each potency; many fits are weak.

Assay: qHTS Assay for Lipid Storage Modulators in Drosophila S3 Cells;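 on cell number change: cells counted by Cell Tracker Red CMTPX staining in the red channel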
Conditions: BODIPY lipid droplet fluorescence, 18-24 h; for cell number change: measured here: cell count max response, cells fed with added oleic acid
Procedure, shortened: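 Laser-scanning cytometry quantifies lipid droplet accumulation (500–530 nm total intensity; droplet/cell object ratio) in oleic acid-fed (400 uM added) Drosophila S3 cells treated with a concentration series. 20 uM Triacsin C defined 100% inhibition.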

[1] = measured here: lipid fluorescence (Fed channel) AC50, cells fed with added oleic acid
[2] = measured here: cell number channel AC50, cells fed with added oleic acid

Compound	AC50 [1]	cell number change [%]	AC50 [2]
O=C1/C(=C/c2ccco2)SC(=S)N1CCC(=O)N1CCCCC1CCO (centres undefined)	29.1 µM [falling, single point]		
COc1ccccc1CN(Cc1nc2ccccc2c(=O)[nH]1)C(=O)Nc1ccc(C)cc1	0.291 µM [rising, full curve]		
COc1ccc(-n2ncc3c2CC(C)(C)CC3NC(=O)CCc2c(C)nn(C)c2C)cc1 (centres undefined)	18.4 µM [rising, single point]		
CCn1cc(/C=C2/SC(=S)NC2=O)c(C)n1	23.1 µM [falling, single point]	5.31	
COc1cc(/C=C/C(=O)OCC(=O)NCC2CCCCC2)ccc1O		-13.8	
COc1ccc(N2CCN(C(=O)CSc3ncnc4c3cnn4-c3ccc(OC)cc3)CC2)cc1	0.58 µM [rising, single point]	-20.3	0.651 µM [falling, full curve, poor fit]
Cc1cc(Nc2ccccc2N2CCOCC2)n2ncnc2n1	5.17 µM [rising, single point]	39.5	16.4 µM [rising, single point]
CCOC(=O)N1CCN(S(=O)(=O)c2ccc(F)cc2)CC1	0.116 µM [falling, full curve, poor fit]	15.1	
CC1(N2CCOCC2)C(=O)c2ccccc2C1=O	1.84 µM [falling, full curve]	-19.6	
CCCc1cc2c(cc1NC(=O)c1ccc(C(C)(C)C)cc1)OCO2	29.1 µM [falling, single point]	-1.65	
Cc1ccccc1/C=N/N1CCN(c2ccccc2)CC1	3.26 µM [rising, partial curve]	7.2	
CN(C)/C=N/c1nccc(-c2cccs2)n1		3.75	
Cc1ccc(C)c(N2CC(C(=O)O)CC2=O)c1 (centres undefined)	0.517 µM [falling, full curve, poor fit]	-2.66	
CCOc1ccc(CCNC(=O)COC(=O)c2cccs2)cc1OCC	2.31 µM [falling, full curve]	-44.9	4.11 µM [falling, full curve]
O=[N+]([O-])c1ccc(Cl)c(CN2CCN(c3ncccn3)CC2)c1	29.1 µM [rising, single point]	17.2	
Cc1cccc(N2C(=O)CC(SC(N)=Nc3ccccc3)C2=O)c1 (centres undefined)	0.13 µM [falling, full curve]	-13.7	0.146 µM [falling, full curve, poor fit]
CCC(C)[C@H](NC(=O)Nc1ccc(S(N)(=O)=O)cc1)C(=O)OC (some centres undefined)	1.16 µM [falling, full curve]	-12.5	
O=C(CSc1ncccn1)n1c2c(c3ccccc31)CCCC2	6.51 µM [rising, single point]		
CCc1cc(=O)oc2c3c(cc(OCC(=O)Nc4cccnc4)c12)OC(C)(C)CC3	16.4 µM [falling, single point]	-24.3	
COc1ccc(C(C#N)N2N=C(c3ccccc3)CC2c2ccccc2)cc1OC (centres undefined)	5.8 µM [rising, full curve, poor fit]	56.8	9.2 µM [rising, partial curve, poor fit]
O=C(Nc1cc(-c2ccccc2)nn1-c1ccccc1F)c1ccc([N+](=O)[O-])cc1	23.1 µM [rising, partial curve]	53.3	32.6 µM [rising, single point]

Compound	AC50 [1]	cell number change [%]	AC50 [2]
N=c1c(C(=O)NC2CCCC2)cc2c(=O)n3ccccc3nc2n1C1CCCCC1		-5.13	
CC(C)CC1CCCCC1OC(=O)C[N+]1(C)CCCCC1 (centres undefined)	29.1 µM [rising, single point]	19.4	
Cc1ccc(CN(C)CC(=O)Nc2ccc3c(c2)CCC3)cc1		-22.3	0.708 µM [falling, full curve, poor fit]
COc1cc(C(=O)O)c([N+](=O)[O-])c(OC)c1OC	1.46 µM [falling, partial curve, poor fit]	17.2	
Cc1nc(SCc2ccc(O)c([N+](=O)[O-])c2)c([N+](=O)[O-])[nH]1	0.0326 µM [falling, full curve, poor fit]	3.7	
Cc1ccc(S(=O)(=O)N2CCN(C(=O)c3n[nH]c(=O)c4ccccc34)CC2)c(C)c1	0.103 µM [falling, full curve, poor fit]	-28.1	
Cc1c(Cl)cccc1NC(=O)Nc1c(C)n(C)n(-c2ccccc2)c1=O	4.11 µM [falling, full curve, poor fit]	11	
Cc1nn(CC(=O)Nc2ccc(Cl)cn2)c(C)c1Br		-16	0.0058 µM [rising, full curve, poor fit]
COc1cc(OC)c([N+](=O)[O-])cc1/C=N/NC(=O)c1ccncc1	0.58 µM [rising, partial curve, poor fit]	12.8	
NC(=O)CCN1CCN(S(=O)(=O)/C=C/c2ccccc2)CC1		0.417	
COC(=O)C1C(c2ccc(OC)cc2)C(C(=O)OC)S(=O)(=O)C(CCN2CCCCC2)S1(=O)=O (centres undefined)		4.82	
CCOc1ccc(/C=N/Nc2cc(=O)n(C)c(=O)n2C)cc1	0.58 µM [falling, partial curve, poor fit]	-14.3	
COc1cc(C2C(C#N)=C(N)Oc3cc(C)oc(=O)c32)cc2c1OCO2 (centres undefined)		36.9	32.6 µM [rising, partial curve, poor fit]
CN1CCN(C(=O)C2CCCN(c3ncnc4c3nc3n4CCCCC3)C2)CC1 (centres undefined)	0.58 µM [falling, single point]	-10.8	
CC1CCCC/C1=N\NC(=S)Nc1ccccc1 (centres undefined)	0.00461 µM [falling, full curve, poor fit]		
O=C(CCCn1c(=S)[nH]c2cc3c(cc2c1=O)OCO3)N1CCN(c2ccccn2)CC1	20.6 µM [falling, single point]	-28.6	
Cc1cccc(NC(=S)NC(=O)c2ccc(-c3ccccc3)cc2)n1		28.6	
COc1ccc(C2CC(c3cccs3)=NN2C(=O)CSc2nc3c(cnn3-c3ccccc3)c(=O)[nH]2)cc1 (centres undefined)	7.31 µM [rising, partial curve, poor fit]	-15.1	
Cn1c(SCC(=O)Nc2ccc3c(c2)OCCO3)nnc1-c1ccco1		-15.6	
CC1Cc2nc(SCC(N)=O)n(Cc3ccccc3)c(=O)c2S1 (centres undefined)	6.51 µM [falling, single point]		
C=CCc1cccc(Cl)c1OCCON1C(=O)CCC1=O	7.31 µM [rising, partial curve]	25.2	0.517 µM [rising, partial curve]

Looked up by structure from the entries so far, 2 records:
Compound	AC50 [1]	cell number change [%]	AC50 [2]
Cc1ccc(S(=O)(=O)N2CCN(C(=O)c3n[nH]c(=O)c4ccccc34)CC2)c(C)c1	0.103 µM [falling, full curve, poor fit]	-28.1	
CC1Cc2nc(SCC(N)=O)n(Cc3ccccc3)c(=O)c2S1 (centres undefined)	6.51 µM [falling, single point]		

The listing continues:

Compound	AC50 [1]	cell number change [%]	AC50 [2]
N#CC1=C(N)Oc2c(sc3ccccc23)C1c1ccco1 (centres undefined)	1.84 µM [rising, full curve, poor fit]	-2.75	
C=CCn1c(NC(C)c2cc(Cl)ccc2O)nc2ccccc21 (centres undefined)	29.1 µM [falling, single point]		
FC(F)(F)c1ccc2c(c1)N1CCCC1CN2 (centres undefined)	20.6 µM [falling, partial curve, poor fit]	10.4	
O=C(CN1CCOCC1)Nc1ccc([N+](=O)[O-])cc1Br	0.1 µM [falling, full curve, poor fit]	-43	
C[C@H]1CN=C(N(C)C)N1CCc1ccccc1		9.17	
Cn1c(SCC(=O)NCc2ccc3c(c2)OCO3)nnc1-c1c[nH]c2ccccc12	0.231 µM [rising, full curve]	-6.27	
CC(C)(Oc1ccc(Cl)cc1)C(=O)N/N=C/c1cn[nH]c1-c1ccccc1	29.1 µM [falling, single point]	-84.9	25.9 µM [falling, single point]
NC(=O)c1ccc(NC(=O)CSC2=Nc3ccccc3C3CC=NN23)cc1 (centres undefined)	1.64 µM [rising, partial curve]	88.8	7.31 µM [rising, partial curve]
CCOc1ccccc1NC(=O)c1c(NC(=O)CCC(=O)O)sc2c1CCCCC2		-29.9	
CCC(Sc1nc(C)cc(C)n1)C(=O)O (centres undefined)	4.61 µM [falling, single point]	-8.71	
O=C(Cc1ccc([N+](=O)[O-])cc1)N/N=C/c1ccco1		-22.7	
CCOC(=O)c1c(C)[nH]c(C)c1C(=O)Cn1nnc(-c2ccccc2C)n1		7.89	
CC(C)[C@H](Nc1ccc(S(=O)(=O)N2CCOCC2)cc1[N+](=O)[O-])C(=O)OCC(=O)N(C(C)C)C(C)C		66.7	29.1 µM [rising, single point]
CCCCC(O)(CCCC)C(=O)NN(C(=O)c1cccnc1Cl)c1ccccc1	6.51 µM [rising, single point]	-19.4	
CN(CC(=O)N1CCN(c2ccccn2)CC1)S(=O)(=O)c1ccc(Cl)cc1		22.3	
Cc1cc(=O)oc2ccc(OC(=O)CC(C)C)cc12	0.206 µM [falling, full curve, poor fit]	2.53	
CC1(C)NC(=O)N(CCOCCOc2ccccc2)C1=O		-18.9	1.16 µM [falling, full curve, poor fit]
O=c1[nH][nH]c(-c2ccccc2)c1C=Nc1ccc(F)cc1F	32.6 µM [rising, single point]	30.6	
O=S(=O)(CC(c1ccccc1)N1CCCCC1)c1ccc(Cl)cc1 (centres undefined)	0.00461 µM [falling, full curve, poor fit]	-2.55	
CCNc1nc(Cl)nc(-c2cn(-c3ccccc3)c3ccccc23)n1	16.4 µM [falling, single point]		0.164 µM [rising, full curve]
